# Several values for one entry are separate records, joined by “and”; a condition that tells them apart may be missing. Equal entries are not always repeated. The list shows a part of the results.
# How the values were obtained:
# Assay in all cases: protein microarray (ProtoArray v5.0), streptavidin-Alexa Fluor 647
# Conditions in all cases: 3'-biotin; 20 mM Tris (pH 7.5), 5 mM MgCl2, 100 mM KCl, 0.1% Tween-20, A/T-rich and random oligonucleotide blockers; temperature not stated; high values mean tight binding
# Copine-6 (human) = tested on: Copine-6 (human)
# [1] = tested on: Copper chaperone for superoxide dismutase (human)
# [2] = tested on: Cyclin-dependent kinase-like 3 (human)
# [3] = tested on: Cystathionine beta-synthase (human)
# [4] = tested on: Cysteine dioxygenase type 1 (human)
# [5] = tested on: Cytochrome b ascorbate-dependent protein 3 (human)
# [6] = tested on: Cytochrome b-c1 complex subunit 6, mitochondrial (human)
# [7] = tested on: Cytochrome b5 domain-containing protein 2 (human)
# [8] = tested on: Cytochrome c oxidase assembly protein COX19 (human)
# [9] = tested on: Cytochrome c oxidase polypeptide VIc (human)
sequence,measurement,setting,value
GGGAGGCTGAGGCAGG [G4-1 biotinylated (PQS2)],binding signal,Copine-6 (human),-0.259 z-score
same,binding signal,[1],-0.347 z-score
same,binding signal,[2],6.26 z-score
same,binding signal,[3],-0.362 z-score
same,binding signal,[4],-0.341 z-score and -0.337 z-score
same,binding signal,[5],-0.292 z-score
same,binding signal,[6],-0.329 z-score
same,binding signal,[7],-0.278 z-score
same,binding signal,[8],-0.286 z-score
same,binding signal,[9],-0.325 z-score
